Assay [1] concerns the target T1, Moraxella catarrhalis TbpB without the FLAG-tag (Moraxella catarrhalis strain O35E) (UniProt P0DTW7).
T1 sequence: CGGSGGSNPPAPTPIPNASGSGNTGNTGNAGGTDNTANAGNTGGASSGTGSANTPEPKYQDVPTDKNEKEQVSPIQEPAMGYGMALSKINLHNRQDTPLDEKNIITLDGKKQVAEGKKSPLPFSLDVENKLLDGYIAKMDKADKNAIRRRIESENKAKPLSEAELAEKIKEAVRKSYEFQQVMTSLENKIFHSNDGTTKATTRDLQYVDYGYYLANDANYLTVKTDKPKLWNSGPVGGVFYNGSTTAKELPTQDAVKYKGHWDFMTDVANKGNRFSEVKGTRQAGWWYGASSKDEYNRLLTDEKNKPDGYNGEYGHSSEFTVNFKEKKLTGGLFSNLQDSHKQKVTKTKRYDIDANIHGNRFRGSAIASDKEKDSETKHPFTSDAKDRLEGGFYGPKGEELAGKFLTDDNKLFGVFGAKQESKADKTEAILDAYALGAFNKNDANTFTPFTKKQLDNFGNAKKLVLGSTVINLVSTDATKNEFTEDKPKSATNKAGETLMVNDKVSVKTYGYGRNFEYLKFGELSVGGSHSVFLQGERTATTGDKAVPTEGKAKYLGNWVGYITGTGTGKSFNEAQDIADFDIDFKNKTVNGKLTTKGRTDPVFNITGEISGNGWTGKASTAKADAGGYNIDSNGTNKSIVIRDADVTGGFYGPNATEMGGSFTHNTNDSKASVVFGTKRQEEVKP
Kind of assay: flow cytometry on cells; E. coli C43 (DE3) cells expressing TbpB with or without its neighbouring Slam (auto-induction 18 h 37°C; for H. influenzae TbpB 1 mM IPTG, 18°C, 16-18 h), washed in PBS with 1 mM MgCl2, incubated with biotinylated human transferrin (0.05 mg/ml) 1 h at 4°C, then R-PE streptavidin; fixed in 2% formaldehyde; mean fluorescence intensity; only the binder purified.

By UniProt entry, the sequences of proteins in these tests, tags left out. Residues count along the entry.
UniProt P02787, residues 20-698: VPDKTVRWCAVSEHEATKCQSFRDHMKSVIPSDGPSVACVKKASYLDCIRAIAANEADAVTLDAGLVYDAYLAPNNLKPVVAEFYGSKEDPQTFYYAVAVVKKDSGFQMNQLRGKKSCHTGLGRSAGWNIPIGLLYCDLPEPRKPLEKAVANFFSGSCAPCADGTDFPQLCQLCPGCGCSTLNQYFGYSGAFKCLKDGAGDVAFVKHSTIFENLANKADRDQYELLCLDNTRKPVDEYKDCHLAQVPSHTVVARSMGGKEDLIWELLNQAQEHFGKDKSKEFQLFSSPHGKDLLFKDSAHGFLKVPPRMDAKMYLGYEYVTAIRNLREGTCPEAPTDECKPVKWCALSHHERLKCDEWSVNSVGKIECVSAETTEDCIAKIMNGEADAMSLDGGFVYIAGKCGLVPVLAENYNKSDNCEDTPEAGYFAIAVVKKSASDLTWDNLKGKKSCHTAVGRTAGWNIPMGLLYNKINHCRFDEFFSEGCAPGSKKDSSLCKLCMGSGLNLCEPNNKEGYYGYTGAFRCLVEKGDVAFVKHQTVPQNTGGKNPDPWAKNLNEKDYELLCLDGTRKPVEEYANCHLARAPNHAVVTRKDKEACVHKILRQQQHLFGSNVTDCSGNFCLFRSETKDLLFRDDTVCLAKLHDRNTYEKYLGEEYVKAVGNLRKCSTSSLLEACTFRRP

Assay [2] concerns the target T2, Moraxella catarrhalis TbpB-flag (Moraxella catarrhalis strain O35E) (UniProt P0DTW7).
T2 sequence: T1 sequence
The assay is described as above.

No constants are given. Whether binding was seen depends on the method and setting. Some entries that bind do so weakly or less than the wild type. Where a sequence is shown, tags or fusion partners need not be part of it.

For “biotinylated human transferrin (from UniProt P02787 20-698)”, the binding result in assay [1] and in assay [2] was “binds” in each case.

The values are drawn from paper PMC5449769.
